Laboratory results reported in paper PMC3491396.

By UniProt entry, the sequences of proteins in these tests, tags left out. Where a name states a change or a piece, a line headed by the entry shows the natural chain unless it says otherwise.
UniProt Q9NQB0: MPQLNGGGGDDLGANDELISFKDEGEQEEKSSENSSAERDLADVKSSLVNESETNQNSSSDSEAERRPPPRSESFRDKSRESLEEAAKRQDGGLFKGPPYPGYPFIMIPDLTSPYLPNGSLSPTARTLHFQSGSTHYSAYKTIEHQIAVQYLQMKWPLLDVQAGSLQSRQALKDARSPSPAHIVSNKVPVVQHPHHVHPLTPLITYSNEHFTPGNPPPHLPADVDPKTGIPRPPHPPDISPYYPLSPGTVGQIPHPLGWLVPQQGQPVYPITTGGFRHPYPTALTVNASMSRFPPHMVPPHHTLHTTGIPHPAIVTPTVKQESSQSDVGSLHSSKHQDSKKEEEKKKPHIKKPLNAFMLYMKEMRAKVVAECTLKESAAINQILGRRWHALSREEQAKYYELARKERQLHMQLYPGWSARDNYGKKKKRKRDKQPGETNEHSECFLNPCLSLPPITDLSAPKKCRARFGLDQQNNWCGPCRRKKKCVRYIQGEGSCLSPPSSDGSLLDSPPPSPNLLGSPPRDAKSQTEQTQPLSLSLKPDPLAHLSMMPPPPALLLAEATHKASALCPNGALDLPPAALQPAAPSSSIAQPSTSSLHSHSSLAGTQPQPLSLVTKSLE
UniProt P23771: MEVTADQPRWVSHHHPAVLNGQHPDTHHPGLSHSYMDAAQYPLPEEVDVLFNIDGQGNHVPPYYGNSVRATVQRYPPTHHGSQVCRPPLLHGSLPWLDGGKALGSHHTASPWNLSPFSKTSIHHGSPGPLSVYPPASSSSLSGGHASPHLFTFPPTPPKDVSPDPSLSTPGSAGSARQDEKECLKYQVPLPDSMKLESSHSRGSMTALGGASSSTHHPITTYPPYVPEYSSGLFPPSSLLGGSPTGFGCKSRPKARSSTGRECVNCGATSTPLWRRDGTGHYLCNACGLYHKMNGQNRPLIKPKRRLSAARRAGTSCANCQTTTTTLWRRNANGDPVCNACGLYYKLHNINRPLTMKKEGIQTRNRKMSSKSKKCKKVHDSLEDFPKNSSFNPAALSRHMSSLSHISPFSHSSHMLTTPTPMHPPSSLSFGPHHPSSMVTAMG

Biological target: FLAG-tagged full-length TCF7L2 (the E-isoform) (human) (UniProt Q9NQB0)
Experiment: co-IP; anti-FLAG M2 agarose immunoprecipitation of extracts of MCF7 cells transfected with FLAG-TCF7L2 constructs; NP-40 lysis buffer (PBS, 0.25% NP-40, 0.1% sodium deoxycholate), 4 hours at 4°C; western blot with anti-GATA3 and anti-FLAG

With “GATA3 (GATA binding protein 3) (from UniProt P23771 1-443)” the binding was “binds”.

These are yes or no findings as the source states them, for the method shown. Binding seen in cells or lysates may run through a third protein. Binding calls can cover weak binding; strength is not graded here.
